Paper PMC8274477
These are yes or no findings as the source states them, for the method shown. Some binding calls cover weakened binding; strength is not graded here.

By UniProt entry, the sequences of proteins in these tests, tags left out. Residues count along the entry.
UniProt P10809, residues 27-573: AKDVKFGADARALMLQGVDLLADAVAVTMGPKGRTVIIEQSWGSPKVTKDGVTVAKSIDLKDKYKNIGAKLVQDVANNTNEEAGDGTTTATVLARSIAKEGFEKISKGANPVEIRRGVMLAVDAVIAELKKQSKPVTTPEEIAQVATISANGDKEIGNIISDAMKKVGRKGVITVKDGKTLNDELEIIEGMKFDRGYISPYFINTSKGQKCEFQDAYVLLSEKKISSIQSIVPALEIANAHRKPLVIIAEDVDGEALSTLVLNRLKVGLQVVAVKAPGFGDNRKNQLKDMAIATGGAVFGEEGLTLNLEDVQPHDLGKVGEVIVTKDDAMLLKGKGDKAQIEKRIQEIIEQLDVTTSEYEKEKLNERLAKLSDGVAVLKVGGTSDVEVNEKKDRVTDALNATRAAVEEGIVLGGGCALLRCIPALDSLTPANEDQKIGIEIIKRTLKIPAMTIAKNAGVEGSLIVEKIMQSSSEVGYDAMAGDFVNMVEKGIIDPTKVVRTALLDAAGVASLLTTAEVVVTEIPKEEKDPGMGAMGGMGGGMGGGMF

Tests used:
Experiment in all cases: peptide or protein array; HuProt human proteome microarray; 5 ug/5 ml biotin-labelled LUBAC or OTULIN in solution, 1 h at room temperature; Cy5-streptavidin, scanned at 635 nm; BSA as negative control; hits: Z-score >= 3 and I_(Mean_Ratio) >= 1.4; both purified
DLG3 (human) = target: T1, DLG3 (human) (UniProt Q92796)
T1 sequence: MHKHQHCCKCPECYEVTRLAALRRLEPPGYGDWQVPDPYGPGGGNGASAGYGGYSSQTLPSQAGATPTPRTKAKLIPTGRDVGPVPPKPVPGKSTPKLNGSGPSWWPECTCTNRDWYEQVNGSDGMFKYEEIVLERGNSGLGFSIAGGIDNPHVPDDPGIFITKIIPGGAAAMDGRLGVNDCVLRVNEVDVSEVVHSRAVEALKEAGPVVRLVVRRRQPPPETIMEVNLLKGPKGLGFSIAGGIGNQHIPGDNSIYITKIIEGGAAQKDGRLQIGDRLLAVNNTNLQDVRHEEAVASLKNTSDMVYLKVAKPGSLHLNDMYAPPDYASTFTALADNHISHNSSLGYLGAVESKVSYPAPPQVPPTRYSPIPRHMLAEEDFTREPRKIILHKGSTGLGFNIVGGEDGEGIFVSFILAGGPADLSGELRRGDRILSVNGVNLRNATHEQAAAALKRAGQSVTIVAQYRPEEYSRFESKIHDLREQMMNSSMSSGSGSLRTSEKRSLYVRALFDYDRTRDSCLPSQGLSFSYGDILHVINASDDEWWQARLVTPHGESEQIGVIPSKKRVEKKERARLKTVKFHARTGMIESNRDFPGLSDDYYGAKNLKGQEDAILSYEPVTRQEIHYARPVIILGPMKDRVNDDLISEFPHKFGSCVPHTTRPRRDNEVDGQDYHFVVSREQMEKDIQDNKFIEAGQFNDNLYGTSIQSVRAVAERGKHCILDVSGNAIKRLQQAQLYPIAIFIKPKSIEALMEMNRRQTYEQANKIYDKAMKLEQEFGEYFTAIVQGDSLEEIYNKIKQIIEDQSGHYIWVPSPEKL

GMPPA (human) = target: T2, GMPPA (human) (UniProt Q96IJ6)
T2 sequence: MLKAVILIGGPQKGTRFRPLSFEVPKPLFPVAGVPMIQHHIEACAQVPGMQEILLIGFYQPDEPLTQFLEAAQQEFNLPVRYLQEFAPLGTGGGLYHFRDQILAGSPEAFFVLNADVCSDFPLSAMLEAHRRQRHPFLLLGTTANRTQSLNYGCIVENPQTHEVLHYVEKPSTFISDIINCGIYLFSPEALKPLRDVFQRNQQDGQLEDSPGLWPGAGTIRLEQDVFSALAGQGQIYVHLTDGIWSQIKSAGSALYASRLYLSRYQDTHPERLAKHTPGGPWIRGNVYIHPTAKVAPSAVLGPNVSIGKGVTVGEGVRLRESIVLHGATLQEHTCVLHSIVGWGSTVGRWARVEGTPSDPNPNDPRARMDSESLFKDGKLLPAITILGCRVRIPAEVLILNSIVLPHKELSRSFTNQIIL

HSPD1 (human) = HSPD1 (human) (UniProt P10809)
RBM12 (human) = target: T3, RBM12 (human) (UniProt Q9NTZ6)
T3 sequence: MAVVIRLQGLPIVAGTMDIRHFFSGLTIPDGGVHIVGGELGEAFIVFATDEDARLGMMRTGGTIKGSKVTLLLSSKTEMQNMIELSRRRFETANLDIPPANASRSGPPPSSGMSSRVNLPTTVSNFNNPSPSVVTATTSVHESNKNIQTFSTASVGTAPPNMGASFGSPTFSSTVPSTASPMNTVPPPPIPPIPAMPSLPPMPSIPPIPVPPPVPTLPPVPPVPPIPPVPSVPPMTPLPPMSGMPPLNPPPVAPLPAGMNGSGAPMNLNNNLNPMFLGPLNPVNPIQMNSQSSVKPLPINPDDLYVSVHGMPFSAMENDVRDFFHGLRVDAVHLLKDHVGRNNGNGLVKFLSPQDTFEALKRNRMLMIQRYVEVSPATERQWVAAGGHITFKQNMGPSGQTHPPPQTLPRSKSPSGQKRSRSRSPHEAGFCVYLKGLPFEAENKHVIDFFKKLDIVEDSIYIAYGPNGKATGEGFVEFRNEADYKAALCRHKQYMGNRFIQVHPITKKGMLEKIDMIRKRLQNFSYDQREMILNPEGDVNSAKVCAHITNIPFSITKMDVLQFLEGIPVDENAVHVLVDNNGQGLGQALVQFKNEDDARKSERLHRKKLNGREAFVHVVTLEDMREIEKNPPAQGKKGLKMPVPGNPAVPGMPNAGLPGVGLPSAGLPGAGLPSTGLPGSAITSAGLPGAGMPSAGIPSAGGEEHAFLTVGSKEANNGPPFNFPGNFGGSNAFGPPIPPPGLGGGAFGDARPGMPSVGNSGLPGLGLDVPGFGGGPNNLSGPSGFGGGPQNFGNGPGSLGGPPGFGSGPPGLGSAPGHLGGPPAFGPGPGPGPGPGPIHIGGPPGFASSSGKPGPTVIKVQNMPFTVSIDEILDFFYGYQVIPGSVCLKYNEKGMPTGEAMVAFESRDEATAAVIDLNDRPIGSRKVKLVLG

Measured: binding

linear ubiquitin chain assembly complex (LUBAC), purified as HIS-tagged HOIP with the subunit HOIL-1, biotin-labelled (from UniProt Q96EP0 1-1072; Q9BYM8 1-510)
binds: all assays above
